The exact form of at least one protein or probe is not confirmed. For some assays here: Weaker means in comparison with the reference protein, sequence or condition of that experiment. For some assays here: At least one result comes from cells or an extract, where the contact may be indirect. For some assays here: At least one verdict was read from the data and is not stated in words by the source.
Key:
[1] = test system: c-MYC (purified recombinant, Abcam ab169901) (human); test: EMSA; conditions: Probes annealed at room temperature 1 h, incubated 20 min with protein/NE; WEMSA gel at 100 V on ice; salt and pH not given; commercial protein; label: biotin
[2] = biological target: c-MYC in U937 nuclear extract (UniProt P01106); test: WEMSA (EMSA + anti-c-MYC immunoblot); conditions: p = 0.05, PMA-stimulated U937 NE, Probes annealed at room temperature 1 h, incubated 20 min with protein/NE, WEMSA gel at 100 V on ice, salt and pH not given, protein in an extract, label: biotin
[3] = test system: c-MYC (purified recombinant, Abcam ab169901) (human); test: WEMSA (EMSA + anti-c-MYC immunoblot); conditions: p = 0.01, Probes annealed at room temperature 1 h, incubated 20 min with protein/NE, WEMSA gel at 100 V on ice, salt and pH not given, commercial …, label: biotin
[4] = test system: c-MYC (purified recombinant, Abcam ab169901) (human); test: competition with a labelled probe; conditions: 100x unlabelled probe; Probes annealed at room temperature 1 h, incubated 20 min with protein/NE; WEMSA gel at 100 V on ice; salt and pH not given; commercial protein

Chains of the proteins cited; added tags and fusions are not shown. Where a name states a change or a piece, a line headed by the entry shows the natural chain unless it says otherwise. Chains listed by the source or under a name are the forms on record and can include a tag or linker.
UniProt P01106: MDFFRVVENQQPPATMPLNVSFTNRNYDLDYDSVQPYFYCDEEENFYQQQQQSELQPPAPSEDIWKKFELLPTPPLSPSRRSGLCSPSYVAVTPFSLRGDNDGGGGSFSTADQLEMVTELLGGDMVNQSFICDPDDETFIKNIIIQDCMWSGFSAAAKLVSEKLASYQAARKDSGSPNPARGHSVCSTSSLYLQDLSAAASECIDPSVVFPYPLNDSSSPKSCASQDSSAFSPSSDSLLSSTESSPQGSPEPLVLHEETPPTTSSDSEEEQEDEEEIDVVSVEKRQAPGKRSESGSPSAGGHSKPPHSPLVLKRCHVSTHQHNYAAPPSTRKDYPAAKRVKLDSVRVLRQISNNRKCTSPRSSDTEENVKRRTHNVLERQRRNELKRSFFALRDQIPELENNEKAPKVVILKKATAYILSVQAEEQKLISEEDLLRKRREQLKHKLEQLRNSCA
c-MYC (purified recombinant, Abcam ab169901) (human), one chain, as listed by the source: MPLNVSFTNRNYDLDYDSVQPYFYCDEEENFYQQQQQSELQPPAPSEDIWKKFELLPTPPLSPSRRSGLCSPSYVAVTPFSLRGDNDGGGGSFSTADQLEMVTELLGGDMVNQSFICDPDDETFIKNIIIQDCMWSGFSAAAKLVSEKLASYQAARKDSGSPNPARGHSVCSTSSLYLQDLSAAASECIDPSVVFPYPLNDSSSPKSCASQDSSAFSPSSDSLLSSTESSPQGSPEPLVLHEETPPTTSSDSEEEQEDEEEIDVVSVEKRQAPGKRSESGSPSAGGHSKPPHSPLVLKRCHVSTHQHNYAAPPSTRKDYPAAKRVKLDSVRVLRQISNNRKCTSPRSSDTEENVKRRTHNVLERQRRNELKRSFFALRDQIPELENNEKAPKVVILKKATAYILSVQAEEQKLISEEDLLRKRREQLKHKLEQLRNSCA

Sequence	binding result [1]	binding result [4]	other results
CTCCATGACGCAATTTGGGCTCCGTTATGAGTCAGCTCAAGTAA (double strand) [rs6600247 C (AS-risk) probe]	binds more weakly	–	binding result ([2]; C < T): binds more weakly; binding result ([3]; C < T): binds more weakly
CTCCATGACGCAATTTGGGCTCCGTTATGAGTCAGCTCAAGTAA (double strand) [rs6600247 C unlabelled competitor]	–	binds	–
CTCCATGACGCAATTTGGGCTCTGTTATGAGTCAGCTCAAGTAA (double strand) [rs6600247 T (protective) probe]	binds	–	binding result ([2]; T > C): binds; binding result ([3]; T > C): binds
CTCCATGACGCAATTTGGGCTCTGTTATGAGTCAGCTCAAGTAA (double strand) [rs6600247 T unlabelled competitor]	–	binds	–

— article PMC8782160
